Reference: PubChem BioAssay AID1259415 (National Center for Advancing Translational Sciences (NCATS), 2018)
Where “and” joins values, the source holds several entries; their conditions need not be identical. Equal values may be shown once. About 18,000 (4.4%) of roughly 410,000 compounds were called active. Inconclusive means that the source gave no clear call. Such entries were picked first, then a sample of the others. Rule as the data show it: active = activity change below about -60%; inconclusive = no clear call, values can overlap the other calls; inactive = above about -39%.

Assay: qHTS Assay for inhibitors of the human cytomegalovirus (HCMV)
Settings: HFF cells, HCMV-luciferase reporter, 72 h; at 57.5 µM; stronger effect = lower value
Procedure, shortened: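 After 16 h attachment at 37C, HFF cells received test compound and HCMV-luciferase (1 PFU/cell); reporter luminescence read 72 h later, data normalized against buffer-only and known inhibitor Salinomycin.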
% is scaled to controls: 0 for no effect and ±100 for the full control effect.

| SMILES | activity change, negative = inhibition |
| --- | --- |
| O=C1NC(=O)C(CCc2ccncc2)(CCc2ccncc2)C(=O)N1C1CCCCC1 | inconclusive: -47.6% |
| COc1ccccc1/C=C1\SC(=S)N(CCC(=O)NCCc2ccc(O)cc2)C1=O | active: -74.9% |
| Cc1ccc(C(=O)NCc2nc3ccccc3[nH]2)o1 | inactive: -1.6% |
| COc1cc(C2SCC(=O)N2c2nnc(C34CC5CC(CC(C5)C3)C4)s2)cc(OC)c1OC (configuration not stated) | inconclusive: -54.5% |
| O=C(Nc1ccc2oc(-c3cccnc3)nc2c1)c1ccc(-c2ccccc2)o1 | active: -72.7% |
| CN(CCC#N)C(=O)Cn1nc(Cc2ccncc2)c2ccccc2c1=O | inactive: 12% |
| COc1ccc(NC(=O)CCOc2ccccc2C)cc1S(=O)(=O)N1CCCCC1 | inconclusive: -41.1% |
| COc1ccccc1/C=N/NC(=O)CSc1cc(C)nc2ccccc12 | active: -81.5% |
| O=C(Nc1ccc(CN2CCS(=O)(=O)CC2)cc1)c1ccc(Cl)cc1 | inconclusive: -48.3% |
| Cc1ccc(S(=O)c2ccc([N+](=O)[O-])c3nonc23)cc1 (configuration not stated) | active: -95% |
| COc1cc(/C=N/NC(=O)CN(Cc2ccco2)S(=O)(=O)c2ccccc2)ccc1O | inconclusive: -54.4% |
| COc1ccc([C@@H]2CC=C(C(=O)O)[C@H](c3ccc(F)cc3)N2S(=O)(=O)c2ccccc2C)cc1 | inactive: -6.64% |
| CC(=O)N1CCC2(CC1)OC(=O)C(C)=C2C(=O)NCc1ccc(Cl)cc1 | inconclusive: 0% |
| CC(=O)N(CCc1ccccc1C)Cc1cc2ccc(C)cc2[nH]c1=O | inconclusive: -48.4% |
| Cc1nn(S(=O)(=O)c2ccccc2)c(C)c1Sc1ccc([N+](=O)[O-])cc1 | active: -85.3% |
| COc1ccc(CNC(=O)/C=C/c2ccc3[nH]cc(CCN(C)C)c3c2)cc1 | inconclusive: -50.9% |
| CN1C[C@H](C(=O)N[C@]2(C)O[C@@]3(O)[C@@H]4CCCN4C(=O)[C@H](Cc4ccccc4)N3C2=O)CC2c3cccc4[nH]cc(c34)C[C@H]21 (some centres not stated) | inactive: 10.9% and inactive: -18.6% |
| COc1ccc(NC(=O)C(=O)NCC2CCCN2S(=O)(=O)c2ccc(C)cc2)cc1 (configuration not stated) | active: -85.1% |
| COc1ccc(CN2COc3ccc4c(-c5ccc(OC)cc5)cc(=O)oc4c3C2)cc1 | inconclusive: -42.9% |
| CCc1ccc(-n2nc(C)c3c(C(=O)NCCc4ccc(OC)c(OC)c4)cc(C)nc32)cc1 | inconclusive: -41.8% |
| CCOC(=O)N1CCN(C(=O)c2ccc(S(=O)(=O)Nc3ccc(C)cc3)cc2)CC1 | active: -68.6% |

No new results follow: entries from further up.

| SMILES | activity change, negative = inhibition |
| --- | --- |
| O=C(Nc1ccc(CN2CCS(=O)(=O)CC2)cc1)c1ccc(Cl)cc1 | inconclusive: -48.3% |
| Cc1ccc(S(=O)c2ccc([N+](=O)[O-])c3nonc23)cc1 (configuration not stated) | active: -95% |

Later entries.

| SMILES | activity change, negative = inhibition |
| --- | --- |
| O=C(Nc1ccc(N2CCN(C(=O)c3ccc(Cl)cc3)CC2)cc1)c1ccc(Br)o1 | inconclusive: -45.4% |
| C=C1c2cccc(C(F)(F)F)c2O[C@H](C(=O)OCC)[C@H]1OC | inactive: -20.5% |
| CCOC(=O)C1CCCN(C(=O)c2cccc(S(=O)(=O)N(C)c3c(C)n(C)n(-c4ccccc4)c3=O)c2)C1 (configuration not stated) | active: -98.6% |
| O=C(NCc1cccs1)C1CCN(C(=O)N2CCOc3ccccc32)CC1 | inactive: 17.3% |
| CCOc1ccc(OCCC(=O)OCC(=O)NC2CCCCC2)cc1 | inconclusive: -51.8% |
| Cc1noc(C)c1S(=O)(=O)N(CC(=O)NCc1ccccc1Cl)c1ccc(C(C)C)cc1 | active: -62% |
| CCOc1ccc(C(=O)Nc2ccc(S(=O)(=O)N3CCCCC3c3cccnc3)cc2)cc1 (configuration not stated) | active: -88.8% |
| C=CCSC1=N/C(=C\c2ccc(C(=O)O)cc2)C(=O)S1 | inactive: 2.66% |
| COc1ccc(OC)c(S(=O)(=O)NCc2ccccn2)c1 | inactive: -27.1% |
| Cc1[nH]c2ccccc2c1/C=N/NC(=O)c1cc(-c2ccccc2)n[nH]1 | inconclusive: -52.4% |
| Cc1cccc(Oc2ccc(Cl)cc2N)c1 | inconclusive: -50.6% |
| CC1CCN(c2nnc(-c3ccccc3)c3ccccc23)CC1 | inconclusive: -49.3% |
| CCC1CCCCN1C(=O)c1nn(-c2ccc(C)cc2)c(=O)c2c1c1ccccc1n2C (configuration not stated) | inactive: 0.887% |
| CCOC(=O)c1cc(C(=O)OCC)cc(-n2c(C)cc(C(=O)CN3CCOCC3)c2C)c1 | inconclusive: -48.2% |
| CCOc1ccc(C2C(=O)N(C3CCCCCC3)CC(=O)N2CCc2ccccc2)cc1OC (configuration not stated) | inconclusive: -57.9% |
| CC(=O)Nc1ccc(S(=O)(=O)N=S(C)(C)=O)cc1 | inconclusive: -53.9% |
| CCOC(=O)[C@H]1[C@H]2COc3ccc(Br)cc3[C@@H]2N2C(=O)N(c3ccc(F)cc3)C(=O)[C@@]12C | inconclusive: -51% |
| COc1ccc(S(=O)(=O)N/N=c2\oc3c(OC)cccc3cc2S(=O)(=O)c2ccc(C)cc2)cc1OC | inconclusive: -57.6% |
| O=C(NNc1ccnc2cc(Cl)ccc12)C1CCCCC1 | active: -81.8% |
| CC(=O)c1cn(CC(=O)Nc2ccccc2C(F)(F)F)c2ccccc12 | inconclusive: -40.9% |
| COc1ccc(-n2c(SCc3nnc(-c4ccccc4)o3)nnc2-c2ccccc2)cc1 | inconclusive: -42.1% |
